{"source": "paper PMC5920332", "key": {"[1]": {"tested_on": "GST-ScFBH2 (Saccharum spp. (sugarcane))", "test": "competition with a labelled probe", "details": "EMSA, unlabeled competitor at 5x, 10x, 20x excess over Cy5 WT probe; 20 mM HEPES-KOH pH 7.2, 80 mM KCl, 0.1 mM EDTA, 5% glycerol, 2.5 mM DTT, 0.2 ug/ul BSA, 500 ng poly(dI-dC); 30 min, room temperature; 7% native PAGE in 0.25x TBE; recombinant protein; protein details: N-terminal GST (pGEX4T-1)"}, "[2]": {"tested_on": "GST-ScFBH2 (Saccharum spp. (sugarcane))", "test": "EMSA", "details": "poly(dI-dC) 500 ng, BSA 0.2 ug/ul, probe 50 nM; 20 mM HEPES-KOH pH 7.2, 80 mM KCl, 0.1 mM EDTA, 5% glycerol, 2.5 mM DTT, 0.2 ug/ul BSA, 500 ng poly(dI-dC); 30 min, room temperature; 7% native PAGE in 0.25x TBE; recombinant protein; protein details: N-terminal GST (pGEX4T-1); label: 5'-Cy5 on printed strand"}}, "note": "For at least one entry, the source does not settle the construct or the ends of the probe. For some assays here: No signal at the amounts used counts as a negative.", "data": [{"sequence": "CCTGCTTGCAACCTCACACACCTCATGCGTGAGCC (double strand) [mEE competitor (both E-boxes mutated)]", "values": [{"measurement": "binding result", "setting": "[1]", "value": "no binding"}]}, {"sequence": "CCTGCTTGCACACTTGCACCACTTGTGCGTGAGCC (double strand) [pScACS2 probe (WT, two E-boxes)]", "values": [{"measurement": "binding result", "setting": "[2]", "value": "binds"}]}]}
